Data on two substances can be found in article PMC9663303.

Protein sequences, listed by entry. Tags and fused reporters are not part of them. Lines headed by an entry give the natural chain unless they say otherwise; changes in a name come on top. Residues count along the entry.
UniProt Q09472: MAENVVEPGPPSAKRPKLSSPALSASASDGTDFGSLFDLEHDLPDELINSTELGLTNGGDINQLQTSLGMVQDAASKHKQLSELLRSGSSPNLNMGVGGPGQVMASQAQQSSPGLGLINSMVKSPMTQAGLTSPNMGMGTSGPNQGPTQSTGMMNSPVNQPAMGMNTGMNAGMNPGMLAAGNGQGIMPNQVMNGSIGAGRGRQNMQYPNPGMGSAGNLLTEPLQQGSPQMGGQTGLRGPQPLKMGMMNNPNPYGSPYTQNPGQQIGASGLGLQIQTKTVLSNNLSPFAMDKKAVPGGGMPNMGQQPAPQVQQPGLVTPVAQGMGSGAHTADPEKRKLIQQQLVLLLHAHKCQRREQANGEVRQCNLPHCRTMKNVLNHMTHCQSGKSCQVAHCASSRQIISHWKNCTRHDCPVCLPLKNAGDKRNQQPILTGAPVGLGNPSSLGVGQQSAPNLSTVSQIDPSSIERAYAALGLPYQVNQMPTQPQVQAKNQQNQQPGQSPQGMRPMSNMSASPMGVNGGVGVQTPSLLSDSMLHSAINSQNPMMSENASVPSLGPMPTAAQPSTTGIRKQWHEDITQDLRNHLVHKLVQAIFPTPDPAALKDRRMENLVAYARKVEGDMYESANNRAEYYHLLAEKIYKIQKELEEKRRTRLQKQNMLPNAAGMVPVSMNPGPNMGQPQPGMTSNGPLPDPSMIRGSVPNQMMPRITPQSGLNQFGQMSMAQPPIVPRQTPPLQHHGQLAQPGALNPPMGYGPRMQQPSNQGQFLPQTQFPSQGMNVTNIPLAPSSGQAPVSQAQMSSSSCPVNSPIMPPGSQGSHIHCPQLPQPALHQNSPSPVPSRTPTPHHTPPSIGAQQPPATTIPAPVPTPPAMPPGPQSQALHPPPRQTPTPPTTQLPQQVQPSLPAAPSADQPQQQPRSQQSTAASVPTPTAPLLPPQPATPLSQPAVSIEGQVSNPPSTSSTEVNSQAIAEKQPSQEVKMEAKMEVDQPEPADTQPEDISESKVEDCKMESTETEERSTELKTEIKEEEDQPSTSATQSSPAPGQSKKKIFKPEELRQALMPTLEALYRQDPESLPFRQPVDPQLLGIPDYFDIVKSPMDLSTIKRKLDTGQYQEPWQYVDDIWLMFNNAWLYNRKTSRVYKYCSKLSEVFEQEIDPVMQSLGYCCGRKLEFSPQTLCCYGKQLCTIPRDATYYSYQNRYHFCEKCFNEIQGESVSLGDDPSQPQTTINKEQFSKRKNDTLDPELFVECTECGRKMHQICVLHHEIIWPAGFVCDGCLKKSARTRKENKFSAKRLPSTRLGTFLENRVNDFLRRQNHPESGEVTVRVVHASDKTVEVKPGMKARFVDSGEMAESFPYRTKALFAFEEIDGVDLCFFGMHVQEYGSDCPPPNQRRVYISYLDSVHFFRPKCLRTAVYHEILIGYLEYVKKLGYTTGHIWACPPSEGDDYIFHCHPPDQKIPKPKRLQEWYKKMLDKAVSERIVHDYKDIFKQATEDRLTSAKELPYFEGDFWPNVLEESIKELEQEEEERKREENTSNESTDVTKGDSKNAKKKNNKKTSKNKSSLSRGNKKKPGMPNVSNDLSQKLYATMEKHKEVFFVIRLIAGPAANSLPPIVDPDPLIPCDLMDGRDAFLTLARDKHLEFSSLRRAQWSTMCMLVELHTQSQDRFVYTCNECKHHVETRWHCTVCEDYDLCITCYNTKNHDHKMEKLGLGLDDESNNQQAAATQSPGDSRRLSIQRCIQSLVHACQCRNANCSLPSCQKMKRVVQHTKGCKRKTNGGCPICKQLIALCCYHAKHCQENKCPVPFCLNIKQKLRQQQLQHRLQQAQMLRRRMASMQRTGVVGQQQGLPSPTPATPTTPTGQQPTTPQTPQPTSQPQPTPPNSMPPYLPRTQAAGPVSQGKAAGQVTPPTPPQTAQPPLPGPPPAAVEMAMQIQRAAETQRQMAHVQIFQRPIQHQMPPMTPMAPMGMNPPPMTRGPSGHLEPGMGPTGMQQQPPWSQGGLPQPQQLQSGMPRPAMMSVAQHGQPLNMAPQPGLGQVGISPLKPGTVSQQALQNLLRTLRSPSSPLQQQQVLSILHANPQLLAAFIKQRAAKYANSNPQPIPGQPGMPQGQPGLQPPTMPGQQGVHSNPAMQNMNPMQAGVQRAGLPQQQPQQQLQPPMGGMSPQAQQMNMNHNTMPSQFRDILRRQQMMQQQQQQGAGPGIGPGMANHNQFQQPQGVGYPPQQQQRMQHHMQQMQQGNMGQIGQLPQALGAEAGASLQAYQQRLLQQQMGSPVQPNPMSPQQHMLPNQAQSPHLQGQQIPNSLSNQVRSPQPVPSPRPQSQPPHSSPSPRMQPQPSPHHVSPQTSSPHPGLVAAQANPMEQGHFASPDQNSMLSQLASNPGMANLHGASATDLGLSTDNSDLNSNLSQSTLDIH
UniProt P09919, residues 31-207: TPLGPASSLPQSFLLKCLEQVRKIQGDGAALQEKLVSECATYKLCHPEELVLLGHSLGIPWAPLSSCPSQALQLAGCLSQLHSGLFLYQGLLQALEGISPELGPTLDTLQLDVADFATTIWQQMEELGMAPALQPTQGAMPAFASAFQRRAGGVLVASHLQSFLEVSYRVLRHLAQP
UniProt P40225, residues 22-353: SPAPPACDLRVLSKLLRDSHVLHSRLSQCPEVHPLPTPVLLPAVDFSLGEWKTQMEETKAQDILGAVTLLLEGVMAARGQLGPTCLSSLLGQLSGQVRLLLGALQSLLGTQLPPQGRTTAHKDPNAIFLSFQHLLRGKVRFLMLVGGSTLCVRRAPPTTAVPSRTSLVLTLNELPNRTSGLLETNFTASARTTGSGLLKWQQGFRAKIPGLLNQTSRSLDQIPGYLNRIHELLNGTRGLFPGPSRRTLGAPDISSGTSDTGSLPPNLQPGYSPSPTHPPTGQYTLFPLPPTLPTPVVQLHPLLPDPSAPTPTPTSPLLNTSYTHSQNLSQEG
UniProt P08246, residues 30-267: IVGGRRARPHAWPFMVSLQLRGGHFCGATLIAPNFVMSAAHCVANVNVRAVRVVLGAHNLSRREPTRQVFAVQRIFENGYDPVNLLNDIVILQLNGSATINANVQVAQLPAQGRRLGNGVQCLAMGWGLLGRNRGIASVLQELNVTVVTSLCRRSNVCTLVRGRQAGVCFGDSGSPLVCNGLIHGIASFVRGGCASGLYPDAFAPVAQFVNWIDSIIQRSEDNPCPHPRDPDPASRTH

Results are given in words; binding and its absence hold for the method and conditions named. In cells and extracts the contact can be indirect. Some binding calls cover weakened binding; strength is not graded here.

Assay [1] deals with E1A binding protein P300 (human (endogenous in KG1a)) (UniProt Q09472). The assay can be described thus: co-IP; KG1a cells lysed in non-denaturing lysis buffer; about 300 ug protein with 1 ug G-CSF antibody or EP300 antibody and protein A/G magnetic beads at 4 °C overnight; bound proteins by WB with anti-ELANE or anti-TPO; rabbit IgG as negative control.
In assay [2] the target is Granulocyte colony-stimulating factor (human (endogenous in KG1a)) (UniProt P09919). The description is as above.

Turning to “Thrombopoietin (from UniProt P40225 22-353) (ligand)”, the binding entry in assay [1] is listed as “binds”.
With “neutrophil elastase (from UniProt P08246 30-267) (enzyme)”, in assay [2], the binding result is “binds”.
